No constants are given. Whether binding was seen depends on the method and setting. Some results given as binding are weak or reduced against the parent protein; the word gives no strength.
Biological target: cTfR1 (recombinant, construct not specified) (cynomolgus monkey)
Experiment: BLI, TfR1 captured by transferrin-loaded sensors

Chains of the proteins cited; added tags and fusions are not shown. Residues count along the entry.
UniProt P02787, residues 20-698: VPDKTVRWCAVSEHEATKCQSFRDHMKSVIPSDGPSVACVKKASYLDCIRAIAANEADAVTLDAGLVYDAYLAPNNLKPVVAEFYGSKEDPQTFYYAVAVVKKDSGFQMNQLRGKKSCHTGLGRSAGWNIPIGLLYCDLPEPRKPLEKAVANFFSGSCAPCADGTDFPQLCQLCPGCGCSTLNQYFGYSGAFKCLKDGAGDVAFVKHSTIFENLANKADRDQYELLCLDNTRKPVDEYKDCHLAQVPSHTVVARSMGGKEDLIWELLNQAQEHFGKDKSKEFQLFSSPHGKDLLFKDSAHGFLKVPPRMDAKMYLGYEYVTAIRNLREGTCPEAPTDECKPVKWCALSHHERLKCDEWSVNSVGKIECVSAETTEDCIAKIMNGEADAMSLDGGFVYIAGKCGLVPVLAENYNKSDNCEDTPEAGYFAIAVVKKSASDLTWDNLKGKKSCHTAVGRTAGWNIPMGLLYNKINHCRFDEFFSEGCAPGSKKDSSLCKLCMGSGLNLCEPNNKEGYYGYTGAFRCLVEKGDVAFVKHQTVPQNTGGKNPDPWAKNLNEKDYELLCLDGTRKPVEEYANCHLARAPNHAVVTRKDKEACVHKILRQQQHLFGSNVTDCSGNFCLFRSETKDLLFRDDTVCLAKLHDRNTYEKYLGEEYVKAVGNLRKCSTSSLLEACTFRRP

human holo-transferrin (from UniProt P02787 20-698) (ligand)
binding: binds

From patent publication US20250388664A1
